We go through four sequences from PMC4433226.

Sequences of proteins named here, by UniProt entry; tags and fusion partners are left off.
UniProt P78527, whole entry: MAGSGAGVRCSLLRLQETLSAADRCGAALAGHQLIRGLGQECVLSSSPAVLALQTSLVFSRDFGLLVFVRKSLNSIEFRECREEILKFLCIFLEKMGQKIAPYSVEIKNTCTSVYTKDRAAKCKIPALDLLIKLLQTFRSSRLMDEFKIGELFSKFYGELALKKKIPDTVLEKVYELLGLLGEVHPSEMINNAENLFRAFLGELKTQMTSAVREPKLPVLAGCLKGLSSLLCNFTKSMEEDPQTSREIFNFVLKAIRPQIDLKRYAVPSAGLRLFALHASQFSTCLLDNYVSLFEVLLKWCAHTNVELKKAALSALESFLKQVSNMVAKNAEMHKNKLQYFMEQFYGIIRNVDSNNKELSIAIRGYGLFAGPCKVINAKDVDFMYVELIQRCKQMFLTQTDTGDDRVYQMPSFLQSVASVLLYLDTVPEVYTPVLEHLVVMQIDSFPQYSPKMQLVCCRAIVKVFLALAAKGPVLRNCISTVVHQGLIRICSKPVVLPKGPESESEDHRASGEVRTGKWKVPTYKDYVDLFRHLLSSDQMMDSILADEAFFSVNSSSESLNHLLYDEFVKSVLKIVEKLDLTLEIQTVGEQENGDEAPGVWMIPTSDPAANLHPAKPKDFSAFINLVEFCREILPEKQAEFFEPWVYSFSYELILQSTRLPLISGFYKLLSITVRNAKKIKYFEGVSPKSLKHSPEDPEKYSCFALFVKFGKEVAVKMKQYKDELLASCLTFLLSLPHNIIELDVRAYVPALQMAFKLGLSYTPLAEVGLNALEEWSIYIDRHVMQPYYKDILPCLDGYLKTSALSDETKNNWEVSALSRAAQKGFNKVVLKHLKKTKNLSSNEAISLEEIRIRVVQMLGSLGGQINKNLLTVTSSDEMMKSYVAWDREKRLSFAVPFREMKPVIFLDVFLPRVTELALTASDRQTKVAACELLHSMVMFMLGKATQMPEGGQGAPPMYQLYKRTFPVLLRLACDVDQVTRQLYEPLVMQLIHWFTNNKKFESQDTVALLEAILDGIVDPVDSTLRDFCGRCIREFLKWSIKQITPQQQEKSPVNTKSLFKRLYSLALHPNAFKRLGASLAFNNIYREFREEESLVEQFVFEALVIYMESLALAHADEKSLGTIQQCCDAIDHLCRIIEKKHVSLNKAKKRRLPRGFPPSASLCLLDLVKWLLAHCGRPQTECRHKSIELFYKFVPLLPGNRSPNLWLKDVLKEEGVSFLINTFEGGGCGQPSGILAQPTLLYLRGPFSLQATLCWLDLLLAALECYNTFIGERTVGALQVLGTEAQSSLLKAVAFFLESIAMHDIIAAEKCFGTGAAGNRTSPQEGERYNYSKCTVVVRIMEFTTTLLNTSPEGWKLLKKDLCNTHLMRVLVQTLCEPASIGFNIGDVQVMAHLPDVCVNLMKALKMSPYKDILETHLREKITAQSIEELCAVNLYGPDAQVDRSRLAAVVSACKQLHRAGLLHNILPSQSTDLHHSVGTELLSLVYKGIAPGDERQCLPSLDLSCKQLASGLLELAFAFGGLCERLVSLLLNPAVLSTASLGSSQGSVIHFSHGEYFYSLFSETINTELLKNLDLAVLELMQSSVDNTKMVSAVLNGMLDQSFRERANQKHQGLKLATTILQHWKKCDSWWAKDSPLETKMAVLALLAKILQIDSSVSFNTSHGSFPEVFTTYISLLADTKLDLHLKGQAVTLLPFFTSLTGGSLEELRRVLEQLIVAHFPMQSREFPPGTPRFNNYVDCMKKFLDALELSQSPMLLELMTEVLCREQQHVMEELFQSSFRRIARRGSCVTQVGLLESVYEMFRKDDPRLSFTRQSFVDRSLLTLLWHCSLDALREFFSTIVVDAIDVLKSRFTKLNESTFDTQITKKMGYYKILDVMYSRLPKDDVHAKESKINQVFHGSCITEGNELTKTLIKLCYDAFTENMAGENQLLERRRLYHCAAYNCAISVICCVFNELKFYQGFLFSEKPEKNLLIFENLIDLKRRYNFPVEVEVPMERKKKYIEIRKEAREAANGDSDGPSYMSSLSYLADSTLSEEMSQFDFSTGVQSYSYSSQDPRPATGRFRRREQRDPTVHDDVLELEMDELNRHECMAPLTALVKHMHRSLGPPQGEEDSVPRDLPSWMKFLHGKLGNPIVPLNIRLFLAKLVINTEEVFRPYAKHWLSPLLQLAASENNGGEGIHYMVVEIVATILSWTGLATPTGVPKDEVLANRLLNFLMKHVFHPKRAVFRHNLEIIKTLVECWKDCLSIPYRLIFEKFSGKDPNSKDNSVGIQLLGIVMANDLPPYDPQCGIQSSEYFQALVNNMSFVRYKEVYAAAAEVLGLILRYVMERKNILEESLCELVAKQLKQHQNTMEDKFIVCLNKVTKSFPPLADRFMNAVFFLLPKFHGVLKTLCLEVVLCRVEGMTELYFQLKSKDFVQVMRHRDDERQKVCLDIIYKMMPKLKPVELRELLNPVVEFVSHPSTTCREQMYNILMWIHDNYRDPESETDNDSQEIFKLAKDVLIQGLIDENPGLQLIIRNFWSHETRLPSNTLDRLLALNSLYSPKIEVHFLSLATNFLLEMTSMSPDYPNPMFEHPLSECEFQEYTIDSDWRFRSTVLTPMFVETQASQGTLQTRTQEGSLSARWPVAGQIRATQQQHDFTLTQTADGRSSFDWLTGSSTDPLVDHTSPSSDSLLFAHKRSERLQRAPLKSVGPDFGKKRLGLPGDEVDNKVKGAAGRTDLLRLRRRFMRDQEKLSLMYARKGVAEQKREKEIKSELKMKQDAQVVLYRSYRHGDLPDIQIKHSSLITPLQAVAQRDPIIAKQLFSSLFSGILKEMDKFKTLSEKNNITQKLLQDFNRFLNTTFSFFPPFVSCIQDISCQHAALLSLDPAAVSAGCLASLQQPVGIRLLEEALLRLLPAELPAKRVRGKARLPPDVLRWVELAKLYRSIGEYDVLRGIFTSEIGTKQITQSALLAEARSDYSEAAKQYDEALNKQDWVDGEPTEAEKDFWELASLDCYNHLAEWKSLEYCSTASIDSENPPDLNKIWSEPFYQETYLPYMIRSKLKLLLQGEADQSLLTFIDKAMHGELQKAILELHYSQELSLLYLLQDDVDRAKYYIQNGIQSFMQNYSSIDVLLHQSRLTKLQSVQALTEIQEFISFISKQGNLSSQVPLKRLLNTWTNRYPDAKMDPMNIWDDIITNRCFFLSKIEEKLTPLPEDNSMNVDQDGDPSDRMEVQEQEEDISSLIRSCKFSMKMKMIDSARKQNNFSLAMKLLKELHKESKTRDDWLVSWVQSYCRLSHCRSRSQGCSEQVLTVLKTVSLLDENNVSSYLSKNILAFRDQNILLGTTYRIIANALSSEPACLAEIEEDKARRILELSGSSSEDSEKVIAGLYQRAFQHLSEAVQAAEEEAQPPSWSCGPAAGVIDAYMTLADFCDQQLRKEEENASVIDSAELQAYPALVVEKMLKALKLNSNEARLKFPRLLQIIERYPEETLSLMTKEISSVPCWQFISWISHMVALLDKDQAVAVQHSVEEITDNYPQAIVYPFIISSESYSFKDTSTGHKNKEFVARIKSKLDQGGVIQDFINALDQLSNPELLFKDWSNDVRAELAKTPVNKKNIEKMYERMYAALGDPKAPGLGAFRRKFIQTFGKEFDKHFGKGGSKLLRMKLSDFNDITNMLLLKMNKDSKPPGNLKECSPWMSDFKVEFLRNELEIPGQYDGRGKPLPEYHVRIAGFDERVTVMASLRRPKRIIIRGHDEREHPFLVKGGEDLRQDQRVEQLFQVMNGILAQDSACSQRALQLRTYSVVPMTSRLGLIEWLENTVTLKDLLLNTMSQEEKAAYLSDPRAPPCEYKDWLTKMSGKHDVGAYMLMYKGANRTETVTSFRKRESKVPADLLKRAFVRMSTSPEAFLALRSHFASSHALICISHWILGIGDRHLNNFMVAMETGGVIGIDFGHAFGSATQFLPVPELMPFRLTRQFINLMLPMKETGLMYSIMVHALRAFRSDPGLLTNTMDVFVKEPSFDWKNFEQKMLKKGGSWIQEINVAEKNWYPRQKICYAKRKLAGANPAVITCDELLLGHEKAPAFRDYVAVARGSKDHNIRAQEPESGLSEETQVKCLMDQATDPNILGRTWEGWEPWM

For at least one entry, the source does not settle the construct or the ends of the probe. For some of these results: A weaker result is weaker than the reference pair of the same experiment. For some of these results: At least one verdict was read from the data and is not stated in words by the source.

The subject of data set [1] is Ku70/Ku80 CL (core-linker). As to the kind of experiment: EMSA. Conditions: not statistically different from wild type; EMSA: 20 ul, 500 fmol DNA, buffer as in earlier papers; recombinant protein; protein details: His (Ku70).
Data set [2] concerns Ku70/Ku80 CLH (core-linker-helix). Description: EMSA. To be noted: not statistically different from wild type; EMSA: 20 ul, 500 fmol DNA, buffer as in earlier papers; recombinant protein; protein details: His (Ku70).
Another data set deals with Ku70/Ku80 core. As to the kind of experiment: EMSA. Conditions: not statistically different from wild type; EMSA: 20 ul, 500 fmol DNA, buffer as in earlier papers; recombinant protein; protein details: His (Ku70).
For data set [3], the target named is DNA-PKcs (human (HeLa cells)) (UniProt P78527). Description: ELISA. Conditions: no Ku; ELISA: 20 mM HEPES pH 7.5, 75 mM KCl, 10% glycerol, 0.005% Triton X-100, 2 mM DTT, room temperature, 1 h, 2 pmol DNA, 424 ng DNA-PKcs; native protein; label: 5' biotin on one end.
Data set [4] has as its system Ku70/Ku80 core + DNA-PKcs. As to the kind of experiment: ELISA. Conditions: wild-type level; ELISA: 20 mM HEPES pH 7.5, 75 mM KCl, 10% glycerol, 0.005% Triton X-100, 2 mM DTT, room temperature, 1 h, 2 pmol DNA, 424 ng DNA-PKcs; recombinant protein; protein details: His (Ku70); label: 5' biotin on one end.
In data set [5] the test system is Ku70/Ku80 wild type + DNA-PKcs. Description: ELISA. To be noted: same as 30bp, less than half of 60bp; ELISA: 20 mM HEPES pH 7.5, 75 mM KCl, 10% glycerol, 0.005% Triton X-100, 2 mM DTT, room temperature, 1 h, 2 pmol DNA, 424 ng DNA-PKcs; recombinant protein; protein details: His (Ku70); label: 5' biotin on one end.

Take “CACTTCCAACAGAGGTGACACTGCCTTCAG (double strand) [30bp blunt (EMSA)]”: the binding result (in data set [1]; in data set [2]; with Ku70/Ku80 core) was “binds” each time.
As for “CACTTCCAACAGAGGTGACACTGCCTTCAG (double strand) [30bp blunt, biotinylated]”, the binding result in data set [3] is “binds more weakly”.
The same measure, in the same setting: under “CTTGACCAGTAGTCTAGCACGTGACGATTGCATGCGTCAAGTAAGATGCAGATACTTAAC (double strand) [60bp blunt, biotinylated]” stands “binds more weakly”.
On to “TGACATTGAATTCTCTCCACCATATGGAATTTGATTATGTAATATGCGAAGAATGTGGGAAAGAATTTATGGATTCTTATCTTATGAACCACTTTGATTTGCCAACTTGTGATAACTGCAGAGATGCTGATGATAAACACAAGCTTATAACCAAAACAGAGGCAAAACAAGAATATCTTCTGAAAGACTGTGATTTAGAAAAAAGAGAGCCACCTCTTAAATTTATTGTGAAGAAGAATCCACATCATTCACAATGGGGTGATATGAAACTCTACTTAAAGTTACAGATTGTGAAGAGGTCTCTTGAAGTTTGGGGTAGTCAAGAAGCATTAGAAGAAGCAAAGGAAGTCCGACAGGAAAACCGAGAAAAAATGAAACAGAAGAAATTTTAGTAGGGATCCGTGGATTGAATTCCCTCCGA (double strand) [421bp (~400bp) blunt, biotinylated]”, for which the binding result in data set [4] and in data set [5] was “binds” each time.
